Measurements from “University of Dundee, Small-Polar-MMV Screening Library” (2021), ChEMBL document CHEMBL3988442.

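Assay of Toxoplasma gondii numbers, read through their beta-galactosidase reporter with a colour substrate. Tested at 10 µM. The record gives no direction; the compounds picked for IC50 retests had high values, so higher reads as fewer parasites. Of about 67,000 compounds tested this way, about 260 (0.38%) reached 50% or more in at least one test.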

Results are given as percent effect. How 0% and 100% were set is not recorded. Most values in the screen are low, and negative values occur. Compounds were drawn at random from those tested, without regard to their results.

{"compound": "O=C(O)c1ccn(COc2c(Cl)cccc2Cl)n1", "Percent Effect": -30.76}
{"compound": "Clc1cccc(C(CNc2ncccn2)N2CCOCC2)c1", "stereo": "stereo not drawn", "Percent Effect": -4.503}
{"compound": "CCc1ncc(CN2CCN(CCOC)CC2)cn1", "Percent Effect": 17.53}
{"compound": "CCN(CC)c1ccc(CNC(=O)c2ccc(=O)[nH]n2)cn1", "Percent Effect": -1.123}
{"compound": "Cc1nn(C)c(C)c1C1COCCN1c1ncnc2sccc12", "stereo": "stereo not drawn", "Percent Effect": -4.185}
{"compound": "N#Cc1ccc(S(=O)(=O)NC(=O)C2CC2)c(C(F)(F)F)c1", "Percent Effect": 5.227}
{"compound": "Cn1ccnc1-c1cccc(NC(=O)NCCCO)c1", "Percent Effect": -6.746}
{"compound": "c1cncc(COCC2CN(Cc3ccco3)Cc3ccnn3C2)c1", "stereo": "stereo not drawn", "Percent Effect": 0.05316}
{"compound": "O=C(O)C(F)(F)F.O=C(O)C(F)(F)F.[H][C@@]12CO[C@@H](CN(C)C)[C@]1([H])CCN(Cc1ccc(C)o1)C2", "Percent Effect": 6.72}
{"compound": "CCc1cnc(C)nc1N1CCC(Cc2cccc(C(=O)O)c2)C1", "stereo": "stereo not drawn", "Percent Effect": 8.18}
{"compound": "Cc1cc(C)n(CC2CCCN2C(=O)CCc2nccs2)n1", "stereo": "stereo not drawn", "Percent Effect": 3.146}
{"compound": "CC(=O)CC(C)(C)NC(=O)CCN(C)Cc1ccc(Cl)s1", "Percent Effect": 1.444}
{"compound": "Cc1ccccc1CN(CCN(C)C)C(=O)c1ccc2nccn2c1", "Percent Effect": -3.746}
{"compound": "O=C(NS(=O)(=O)c1ccc(Cl)cc1F)c1cccc2c1OCCO2", "Percent Effect": 3.725}
{"compound": "Cc1cccc(CN2CCCCC2c2n[nH]cc2-c2cc(C)no2)c1.Cl", "stereo": "stereo not drawn", "Percent Effect": -2.614}
{"compound": "COc1ccccc1C1(CNc2cn[nH]c(=O)c2Cl)CCOCC1", "Percent Effect": -17.49}
{"compound": "O=C(O)c1cnc(-c2cccc3c2CCNC3)c(Cl)c1", "Percent Effect": -9.465}
{"compound": "CC(C)n1c2ccccc2c2c1cc(C(=O)N(C)C)n2C(=O)N(C)C", "Percent Effect": -23.4}
{"compound": "CC(C)c1noc(OCc2cccc(S(=O)(=O)N(C)C)c2)n1", "Percent Effect": 1.78}
{"compound": "CN(Cc1cc(Cl)cc2cccnc12)CC1CCN(CCO)CC1", "Percent Effect": -1.186}
{"compound": "CN1CCN(C2CCN(C(=O)CCC3CCCC3)CC2)CC1.O=C(O)C(=O)O", "Percent Effect": 7.401}
{"compound": "Cc1cccc(C(=O)Nc2c(C(N)=O)n[nH]c2C)c1C", "Percent Effect": 8.032}
{"compound": "CC(=O)N1CCCC(c2nccnc2-c2ccc(CO)cc2)C1", "stereo": "stereo not drawn", "Percent Effect": 10.01}
{"compound": "CC(O)c1cn(Cc2ccc(F)cc2)nn1", "stereo": "stereo not drawn", "Percent Effect": 12.83}
{"compound": "COC(=O)c1cc(C(=O)N2CCCCCC2)n(-c2ccccc2)n1", "Percent Effect": -3.67}
{"compound": "[H][C@]12CC[C@]([H])(CN(C(=O)c3ccccn3)C1)N(C(=O)CCc1ccsc1)C2", "Percent Effect": 1.32}
{"compound": "CN1CCCC2(CCN(C(=O)c3ccncc3)C2)C1", "stereo": "stereo not drawn", "Percent Effect": -2.294}
{"compound": "Cn1ccnc1-c1nc(NC2CCCC2)ncc1-c1cccc(F)c1", "Percent Effect": -8.323}
{"compound": "CCc1csc(C2CCCN(C(=O)c3ccco3)C2)n1", "stereo": "stereo not drawn", "Percent Effect": 18.55}
{"compound": "CC1CN(C)CCN1C(=O)c1ccn(-c2ccccc2)n1", "stereo": "stereo not drawn", "Percent Effect": 1.19}
{"compound": "[H][C@@]12CCN(C(=O)c3cc(C)on3)C[C@@]1([H])O[C@H](c1nc(C)cs1)C2", "Percent Effect": -2.439}
{"compound": "COc1c(C2CCCN2c2ncnc3sccc23)c(C)nn1C", "stereo": "stereo not drawn", "Percent Effect": 2.06}
{"compound": "COc1ccnc(N(C)Cc2ccccc2O)n1", "Percent Effect": 3.421}
{"compound": "CC(=O)N1N=C(COc2ccc3c(c2)OCO3)OC1c1cccc(Cl)c1", "stereo": "stereo not drawn", "Percent Effect": 17.39}
{"compound": "O=C(O)C(F)(F)F.O=C(c1ccoc1)N1CCO[C@]2(CCC[C@H]2COCc2cccnc2)C1", "Percent Effect": 22.93}
{"compound": "O=C(O)C(F)(F)F.[H][C@@]12COC[C@]1([H])[C@@H](OC)CN2Cc1ccc(CC)o1", "Percent Effect": 13.85}
{"compound": "Cc1nn(C)c2cn(C(C)C(=O)NCc3cccc(F)c3)nc12", "stereo": "stereo not drawn", "Percent Effect": 1.01}
{"compound": "CC(=O)N1CCCN(C(=O)NCCc2cc(Cl)cc(Cl)c2)CC1", "Percent Effect": -2.868}
{"compound": "CC(C)n1cnnc1Cn1c(=O)ccc2ccccc21", "Percent Effect": 2.248}
{"compound": "CCC(Nc1cccc(OC)c1)C(=O)NCc1ccc2c(c1)OCO2", "stereo": "stereo not drawn", "Percent Effect": 11.24}
{"compound": "COC(=O)c1ccc(N2CCN(C(=O)c3cnccn3)C(C)C2)cc1", "stereo": "stereo not drawn", "Percent Effect": 1.436}
{"compound": "COCCN1CCC(C(=O)N(C)CCOc2ccc(C)cc2Cl)C1", "stereo": "stereo not drawn", "Percent Effect": 5.268}
{"compound": "CNC(=O)C(C)(C)NC(=O)c1cc(COc2ccccc2OC)[nH]n1", "Percent Effect": -15.42}
{"compound": "CC(C)CC(CO)NS(=O)(=O)Cc1ccon1", "stereo": "stereo not drawn", "Percent Effect": -10.8}
{"compound": "c1cnn(Cc2nnc3n2CCCN(c2nccs2)C3)c1", "Percent Effect": -12.99}

The last 3 entries again:

Result for CNC(=O)C(C)(C)NC(=O)c1cc(COc2ccccc2OC)[nH]n1 was -15.42%.
Result for CC(C)CC(CO)NS(=O)(=O)Cc1ccon1 (stereo not drawn) was -10.8%.
Result for c1cnn(Cc2nnc3n2CCCN(c2nccs2)C3)c1 was -12.99%.